Experimental data taken from paper PMC7862700.
Only a part is listed here, and it is no random draw. At the low end of the ranking the order means little.

Legend:
Test in all cases: DAPPL (digital affinity profiling via proximity ligation, sequencing)
Settings in all cases: 10 mM Tris-HCl pH 7.5, 50 mM NaCl, 1 mM DTT, 4% glycerol, room temperature, 30 min; GST-TFs on glutathione beads, 16-mer random dsDNA library, 0.1% …; high values mean tight binding; double strand, one strand shown; scale: fold enrichment (6-mer frequency, TF over GST control)
ELK1 = target: T1, ELK1 (UniProt P19419)
T1 sequence: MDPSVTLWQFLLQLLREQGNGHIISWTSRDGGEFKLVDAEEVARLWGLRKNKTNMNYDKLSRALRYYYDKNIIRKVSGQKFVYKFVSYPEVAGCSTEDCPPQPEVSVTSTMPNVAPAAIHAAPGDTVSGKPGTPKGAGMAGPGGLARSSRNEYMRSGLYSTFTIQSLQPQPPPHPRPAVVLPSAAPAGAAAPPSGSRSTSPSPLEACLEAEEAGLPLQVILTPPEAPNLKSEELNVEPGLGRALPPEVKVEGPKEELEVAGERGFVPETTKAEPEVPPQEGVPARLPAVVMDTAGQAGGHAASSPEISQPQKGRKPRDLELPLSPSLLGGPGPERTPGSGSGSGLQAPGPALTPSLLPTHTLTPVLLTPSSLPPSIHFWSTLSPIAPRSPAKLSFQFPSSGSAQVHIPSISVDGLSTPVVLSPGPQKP

ELK3 = target: T2, ELK3 (UniProt P41970)
T2 sequence: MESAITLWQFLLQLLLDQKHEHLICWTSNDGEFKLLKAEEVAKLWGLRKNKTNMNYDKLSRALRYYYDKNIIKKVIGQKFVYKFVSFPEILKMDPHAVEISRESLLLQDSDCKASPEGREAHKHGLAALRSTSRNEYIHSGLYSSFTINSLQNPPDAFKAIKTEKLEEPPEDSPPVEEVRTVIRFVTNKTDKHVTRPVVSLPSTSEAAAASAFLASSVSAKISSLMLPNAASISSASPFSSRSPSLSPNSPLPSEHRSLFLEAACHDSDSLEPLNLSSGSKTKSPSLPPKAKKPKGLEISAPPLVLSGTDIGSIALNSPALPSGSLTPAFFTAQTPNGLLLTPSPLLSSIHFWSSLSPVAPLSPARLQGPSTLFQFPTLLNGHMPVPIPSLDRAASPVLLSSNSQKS

SPIC = target: T3, SPIC (UniProt Q8N5J4)
T3 sequence: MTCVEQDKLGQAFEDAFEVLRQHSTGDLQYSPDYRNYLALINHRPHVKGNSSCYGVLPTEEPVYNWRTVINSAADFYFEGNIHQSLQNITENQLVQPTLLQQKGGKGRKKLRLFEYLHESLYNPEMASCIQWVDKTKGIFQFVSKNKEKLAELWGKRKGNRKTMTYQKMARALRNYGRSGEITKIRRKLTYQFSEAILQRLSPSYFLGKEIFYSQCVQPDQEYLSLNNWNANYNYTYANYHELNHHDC

ETS2 = target: T4, ETS2 (UniProt P15036)
T4 sequence: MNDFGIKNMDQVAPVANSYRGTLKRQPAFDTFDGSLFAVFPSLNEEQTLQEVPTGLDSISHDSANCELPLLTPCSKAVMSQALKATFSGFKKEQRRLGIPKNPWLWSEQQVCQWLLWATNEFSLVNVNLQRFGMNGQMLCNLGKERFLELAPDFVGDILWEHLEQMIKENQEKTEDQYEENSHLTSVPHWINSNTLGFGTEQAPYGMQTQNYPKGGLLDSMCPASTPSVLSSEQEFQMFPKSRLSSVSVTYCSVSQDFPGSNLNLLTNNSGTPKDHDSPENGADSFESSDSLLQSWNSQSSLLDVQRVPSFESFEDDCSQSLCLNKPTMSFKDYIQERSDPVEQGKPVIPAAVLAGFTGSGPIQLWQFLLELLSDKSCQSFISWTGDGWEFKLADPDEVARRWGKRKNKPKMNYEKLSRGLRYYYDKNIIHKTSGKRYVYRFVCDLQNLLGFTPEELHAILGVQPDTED

ETV3 = target: T5, ETV3 (UniProt P41162-2)
T5 sequence: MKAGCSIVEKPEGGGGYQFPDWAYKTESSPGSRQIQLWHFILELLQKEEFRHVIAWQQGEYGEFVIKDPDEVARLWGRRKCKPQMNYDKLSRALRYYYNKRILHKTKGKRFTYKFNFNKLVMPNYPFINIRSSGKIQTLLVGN

Row | Sequence | binding signal (ELK1) | binding signal (ELK3) | binding signal (SPIC) | binding signal (ETS2) | binding signal (ETV3)
1 | AGCGCA | 0.938 | 0.943 | 0.848 | 0.963 | 0.992
2 | GGGGTT | 0.735 | 0.947 | 0.904 | 0.846 | 0.951
3 | GGGTTA | 0.843 | 0.796 | 0.855 | 0.871 | 0.904
4 | GAACAG | 0.963 | 0.925 | 0.95 | 0.975 | 1.05
5 | AGTAGT | 0.877 | 0.905 | 0.957 | 0.958 | 0.95
6 | CGCAGG | 0.896 | 0.907 | 0.758 | 0.848 | 0.815
7 | AGGGTC | 0.837 | 0.804 | 0.874 | 0.917 | 0.801
8 | TAGTGA | 0.563 | 0.505 | 0.498 | 0.581 | 0.569
9 | GCGTCG | 0.837 | 0.837 | 0.842 | 0.767 | 0.769
10 | GGGTAC | 0.889 | 0.973 | 0.824 | 0.881 | 0.969
11 | GGCCGC | 0.839 | 0.766 | 0.762 | 0.817 | 0.818
12 | GTGAAT | 0.803 | 0.766 | 0.794 | 0.8 | 0.847
13 | TCGGAC | 0.363 | 0.365 | 0.357 | 0.338 | 0.379
14 | GTAAGG | 0.721 | 0.862 | 0.786 | 0.776 | 0.799
15 | GGGGGC | 0.594 | 0.587 | 0.612 | 0.652 | 0.59
16 | CGCGGA | 0.863 | 0.896 | 0.954 | 1 | 1.01
17 | GCAGGC | 0.691 | 0.763 | 0.731 | 0.694 | 0.666
18 | GCAGCG | 0.812 | 0.844 | 0.859 | 0.853 | 0.789
19 | CAGACC | 0.811 | 0.791 | 0.788 | 0.765 | 0.803
20 | GGCATC | 0.903 | 0.817 | 0.99 | 0.855 | 0.946
21 | CCATGT | 0.756 | 0.964 | 0.823 | 0.797 | 0.858
22 | CGCCGT | 1 | 0.826 | 0.914 | 0.863 | 0.974
23 | AGCGAG | 0.553 | 0.611 | 0.487 | 0.654 | 0.622
24 | AGGCAG | 0.603 | 0.517 | 0.631 | 0.549 | 0.556
25 | GAGTAA | 0.572 | 0.65 | 0.556 | 0.572 | 0.537
26 | GGGTCC | 0.789 | 0.717 | 0.804 | 0.852 | 0.783
27 | CGCAGC | 0.86 | 0.789 | 0.83 | 0.817 | 0.776
28 | GTCGCT | 0.865 | 0.98 | 0.757 | 0.779 | 0.802

Row | Sequence | binding signal (ELK1) | binding signal (ELK3) | binding signal (SPIC) | binding signal (ETS2) | binding signal (ETV3)
29 | ACGGAC | 0.87 | 0.861 | 0.744 | 0.815 | 0.9
30 | CGGCGG | 0.669 | 0.696 | 0.62 | 0.573 | 0.601
31 | GTCAAG | 0.797 | 0.873 | 0.759 | 0.808 | 0.742
32 | GGCACA | 0.798 | 0.741 | 0.884 | 0.839 | 0.9
33 | CAAGTG | 0.685 | 0.8 | 0.786 | 0.75 | 0.774
34 | CGTTGA | 0.767 | 0.889 | 0.786 | 0.745 | 0.809
35 | ACGCAG | 0.818 | 0.741 | 0.799 | 0.826 | 0.739
36 | TCAGAG | 0.745 | 0.704 | 0.73 | 0.735 | 0.694
37 | GAACCG | 0.747 | 0.692 | 0.703 | 0.764 | 0.743
38 | GCCACG | 0.872 | 1.03 | 0.958 | 0.953 | 0.919
39 | GTGTAT | 0.896 | 0.848 | 0.939 | 0.946 | 0.925
40 | GACCAT | 0.918 | 0.969 | 0.763 | 0.848 | 0.802
41 | GTCTGT | 0.888 | 0.776 | 0.967 | 0.946 | 0.878
42 | GGTGGG | 0.659 | 0.738 | 0.613 | 0.707 | 0.617
43 | GTCGTC | 0.759 | 0.781 | 0.782 | 0.764 | 0.75
44 | GATCGG | 0.474 | 0.513 | 0.525 | 0.469 | 0.5
45 | CCATGA | 0.899 | 0.843 | 0.831 | 0.86 | 0.912
46 | CAGTGA | 0.337 | 0.338 | 0.336 | 0.321 | 0.352
47 | TGCAGT | 0.869 | 0.786 | 0.777 | 0.851 | 0.815
48 | GGTTGA | 0.737 | 0.782 | 0.838 | 0.762 | 0.753
49 | AGCGTA | 0.931 | 0.897 | 0.814 | 0.884 | 0.884
50 | CGAGTG | 0.833 | 0.74 | 0.822 | 0.792 | 0.709
51 | TGTGAA | 0.848 | 0.786 | 0.713 | 0.844 | 0.78
52 | AGACGT | 0.455 | 0.475 | 0.504 | 0.479 | 0.47
53 | GCAAGA | 0.795 | 0.775 | 0.912 | 0.808 | 0.79
54 | TAGGGA | 0.866 | 0.766 | 0.923 | 0.839 | 0.859
55 | GACTGT | 0.42 | 0.431 | 0.361 | 0.438 | 0.389

Not a retest: entries from further up.
Row | Sequence | binding signal (ELK1) | binding signal (ELK3) | binding signal (SPIC) | binding signal (ETS2) | binding signal (ETV3)
6 | CGCAGG | 0.896 | 0.907 | 0.758 | 0.848 | 0.815
7 | AGGGTC | 0.837 | 0.804 | 0.874 | 0.917 | 0.801
